In all, about 53,000 sequences went through this assay and about 3,700 (7%) were called active.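 Rule for the calls: active = gene knockdowns whose robust z-score for IL-1 alpha signal is at least 2 or at most -2, so actives lie on both sides; inactive = the rest.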 This is one part of the list.
experiment: Components of the Cytosolic LPS Sensing Pathway: Gene Identification via Genome-wide siRNA Screen; conditions: RAW264.7 macrophages, IL-1a HTRF, actives lie on both sides, screened at 100 nM (by protocol), cells primed 5 h with Pam3CSK4 first;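 note: robust z of the log signal after scaling to non-targeting control siRNA wells of the plate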
In short: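 Using IL-1a HTRF as read-out, the screen measured release from RAW264.7 cells after 48h siRNA knockdown (100 nM), 5 h Pam3CSK4 priming and 24 h cytosolic LipidA. Values were expressed relative to negative-control wells as robust z-scores.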

Q: Which z-score does the source give for GGACAAUUGGAAGAUUUGGTT against Ccdc88a here?
A: Its z-score is inactive: -1.23.

Q: Which z-score does the source give for GCUUGAAUACCAUCAGUCATT against Kank4 here?
A: The z-score was inactive: 0.069.

Q: Which z-score does the source give for GCCUUUCUACAGGUCUCUCTT against Asb18 here?
A: The z-score was inactive: -0.699.

Q: Which z-score does the source give for GGGUUGAUAGCAGAUAUCCTT against Cd52 here?
A: Its z-score is inactive: -0.501.

Q: For GGGAAGGAUAUCAUUGUGCTT against Olfr920, which z-score is on record?
A: Its z-score is inactive: -1.84.

Q: For GGCUUUGAGCCCGAAAAUCTT against Zfpm2, which z-score is on record?
A: The z-score was inactive: 0.742.

Q: For CCUGAUUGUCUUCAAUGGGTT against Cant1, which z-score is on record?
A: The z-score was inactive: -0.84.

Q: Which z-score does the source give for GGAGCAAGGCUACAUUUUUTT against Itih3 here?
A: Its z-score is inactive: 1.36.

Q: For GGUCGAAUGACUCAUCUUATT against Hs3st3a1, which z-score is on record?
A: The z-score was inactive: 0.335.

Q: Which z-score does the source give for GCAUCCUGUGAGGUCUAUCTT against Zfp316 here?
A: Its z-score is inactive: 1.16.

Q: With UUGGUUCAACUGCAUCGAATT against Olfr872 as the sequence, how does the z-score read?
A: The z-score was inactive: 0.44.

Q: With “GCCGGAAACUCAAGAUAGCTT against F830208F22Rik” as the sequence, how does the z-score read?
A: Its z-score is inactive: -0.74.

Q: With GGAGGAAUGGAUGAACAAATT against Flcn as the sequence, how does the z-score read?
A: Its z-score is inactive: 1.02.

Q: Which z-score does the source give for CCAAAAUCGAUAAUUCCCUTT against Acvr1 here?
A: The z-score was inactive: -0.00779.

Q: Which z-score does the source give for GGCCCAAUGCUGUAAAUAUTT against Hoxb5 here?
A: The z-score was inactive: -0.835.

Q: With GCAGAUCAAUGGAUUCACCTT against Olfr57 as the sequence, how does the z-score read?
A: The z-score was inactive: -1.51.

Q: For GGUGUUUCAGGUAUUGAAUTT against Ttk, which z-score is on record?
A: The z-score was inactive: 0.703.

Q: For GGCAUUAGGAUACAUAACATT against Rpgrip1l, which z-score is on record?
A: The z-score was inactive: -0.743.

Q: With CGGGAAGAGUACUUGUUUUTT against Cfl1 as the sequence, how does the z-score read?
A: Its z-score is inactive: 0.153.

Q: With GGAAGAUGUUAAGAGUUACTT against Slc1a3 as the sequence, how does the z-score read?
A: The z-score was inactive: -0.865.

Q: For GGGUUGGUACCUAAGAAUGTT against E2f4, which z-score is on record?
A: Its z-score is inactive: 0.0189.

Q: With CCCGGUUGUCUGGAUAUGATT against Map3k3 as the sequence, how does the z-score read?
A: The z-score was active: -2.39.

Q: For GGAAGAAUUGCUUUGCCUCTT against Krt35, which z-score is on record?
A: The z-score was inactive: 0.163.

Q: Which z-score does the source give for GGAGCUGAAGAUGAGUUUGTT against Abhd4 here?
A: The z-score was inactive: -0.115.

Q: Which z-score does the source give for GGCCUACUUUGAUGUUAAATT against Cdc23 here?
A: The z-score was inactive: 0.319.

Q: For GCCACUACGCUCUACUGCATT against Emc1, which z-score is on record?
A: The z-score was inactive: -0.538.

Q: Which z-score does the source give for CGCCAUUUACACUUCCUGCTT against Sval2 here?
A: Its z-score is inactive: -0.622.

Q: For GGUCGCCUACAAAAAAAAATT against Aldh1l1, which z-score is on record?
A: Its z-score is inactive: 0.542.

Q: Which z-score does the source give for GCUCAUUAUUAAACUUACCTT against Tfrc here?
A: The z-score was inactive: 1.44.
